Measured values reported in paper PMC4359025.
These are yes or no findings as the source states them, for the method shown. In cells and extracts the contact can be indirect. A result given as binding can be weak or reduced; the word gives no strength. Sequences can lack the tags named with a protein.

Target: Pbl fused with HA epitope (Pbl::HA) (Drosophila (fly))
Assay: co-IP; S2 cell lysates transfected with control DNA, HA::Pbl, or HA::Pbl and Par6::FLAG; 5 ug anti-HA or anti-Flag antibody, Protein A/G magnetic beads; western blot with anti-Flag, anti-aPKC or anti-HA

B1: Par-6 fused with Flag epitope (Par6::Flag) (protein, UniProt O97111 1-351)
chain: MSKNKINTTSATAASDTNLIEVKSKFDAEFRRWSFKRNEAEQSFDKFASLIEQLHKLTNIQFLILYIDPRDNDLLPINNDDNFGRALKTARPLLRVIVQRKDDLNEYSGFGTMKPRNLIGSILMGHTPVKTKAPSISIPHDFRQVSAIIDVDIVPETHRRVRLLKHGSDKPLGFYIRDGTSVRVTASGLEKQPGIFISRLVPGGLAESTGLLAVNDEVIEVNGIEVAGKTLDQVTDMMVANSSNLIITVKPANQRTLTSTHRGSFSRNSQLSSGSHHTNNTNTSDEIEHDDQDDIVDLTGVTLDESPTSTSAGNHNHQPPLSSSPSSHHQQAASNASTIMASDVKDGVLHL
- binding: binds
